Reference: patent US20230167073A1 (Teijin Pharma Limited, priority 2020, published 2023)
Structures were worked out from names or drawings and are uncertain.

The chains behind the UniProt entries cited, without tags or fusion partners.
UniProt Q9Y210, whole entry: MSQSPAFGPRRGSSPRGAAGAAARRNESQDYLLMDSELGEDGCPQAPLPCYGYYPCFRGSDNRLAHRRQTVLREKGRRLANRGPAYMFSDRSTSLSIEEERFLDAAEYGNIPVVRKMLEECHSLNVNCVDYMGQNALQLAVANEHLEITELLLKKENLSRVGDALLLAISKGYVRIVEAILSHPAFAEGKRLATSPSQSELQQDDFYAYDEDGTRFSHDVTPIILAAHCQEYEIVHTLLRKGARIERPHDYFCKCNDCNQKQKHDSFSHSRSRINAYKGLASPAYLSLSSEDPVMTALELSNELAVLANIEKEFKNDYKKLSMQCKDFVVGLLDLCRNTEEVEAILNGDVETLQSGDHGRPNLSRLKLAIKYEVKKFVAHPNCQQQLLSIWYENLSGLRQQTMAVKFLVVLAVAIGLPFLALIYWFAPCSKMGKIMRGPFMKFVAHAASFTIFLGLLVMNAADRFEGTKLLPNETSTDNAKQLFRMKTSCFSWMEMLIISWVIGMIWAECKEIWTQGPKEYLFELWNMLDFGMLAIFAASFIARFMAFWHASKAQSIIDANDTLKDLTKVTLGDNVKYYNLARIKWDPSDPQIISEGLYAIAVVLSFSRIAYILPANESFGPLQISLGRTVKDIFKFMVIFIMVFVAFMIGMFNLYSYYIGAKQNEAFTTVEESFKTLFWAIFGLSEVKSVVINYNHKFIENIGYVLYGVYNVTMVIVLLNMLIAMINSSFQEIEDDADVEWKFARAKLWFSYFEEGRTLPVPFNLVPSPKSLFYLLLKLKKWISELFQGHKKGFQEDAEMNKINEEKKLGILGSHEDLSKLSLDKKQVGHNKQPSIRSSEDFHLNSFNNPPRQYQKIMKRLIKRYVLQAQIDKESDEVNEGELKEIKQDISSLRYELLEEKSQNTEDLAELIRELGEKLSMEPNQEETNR

Biological target: Human TRPC6 (Homo sapiens, UniProt Q9Y210)
Experiment: Evaluation of TRPC6 channel inhibitory activity (2), HEK293 cells with stably introduced human TRPC6, OAG stimulation, FLIPR tetra (Compound Nos. 1293 to 1405)
Conditions: HEK293 cells with stably introduced human TRPC6, OAG 50 μM/0.5% DMSO
Method: Evaluation of TRPC6 Channel Inhibitory Activity (2) (Compound Nos. 1293 to 1405)
The activity of the TRPC6 inhibitor was measured by stimulating HEK293 cells, in which human TRPC6 was stably introduced, with OAG (1-Oleoyl-2-acetyl-sn-glycerol, Miliipore Sigma, 06754), using the FLIPR tetra system. The cells were proliferated in a humid environment at 37° C. […] A volume of 12.5 μL of OAG solution was added, and activation of TRPC6 channel was measured using the FLIPR tetra system assaying the change in intracellular calcium level as an index. The 180 seconds imaging frame was defined as the background signal, and the subtraction of the background signal from the raw data was used as the fluorescence peak signal. Each fluorescence peak signal is standardized using an OAG-induced signal and buffer-induced signal as 100% and 0%, respectively. […]

- Inhibitory activity (pIC50 class): ++ (6.0≤pIC50<8.0)
Compound: Cn1nc(-c2ccccn2)cc1Oc1cc(Cl)cnc1-c1ccc(CN)cn1
